# The list does not hold the whole screen: it gathers tests that were run many times, whatever their T/C, doses with no T/C, and many T/C values between a quarter and a half above the control. Further doses and runs are listed elsewhere. T/C: endpoint of the treated group in % of that of the vehicle group. Some entries give survivors of the animals treated and no T/C: the source holds a T/C of zero for them, seemingly a mark for toxic or unscored doses. Some doses without a T/C left all or most animals alive at the check, yet need not have been tolerated: the source hardly ever lists a survival T/C far under the control, and the zero likely stands for such cases as well. Survivors were counted at the toxicity check, usually on the fifth day, unless a day is given; later deaths do not show. Schedule codes are those of the source, read here as Q, the interval in days (D) or hours (H), X, the number of doses. Some entries hold several experiments; the results are listed from low to high. Marks such as (2×) give the number of equal values in this list. Where survival is the endpoint, this PubChem deposit counts one and a half times the control or more as active, and values a quarter to a half above the control carry no call in these data; other NCI protocols may use other cut-offs. Some T/C values are followed by the survivors on the day toxicity was checked, most often the fifth; without a count, all were alive then.
# Tested on: CD2F1 mice, P388/ADR leukemia ip, median survival T/C
# Assay: NCI In Vivo Anticancer Drug Screen. Data for tumor model P388 Leukemia resistant to Adriamycin; NSC 123127, Developed at Scr 08 (intraperitoneal) in CD2F1 (CDF1) mice
# Conditions: T/C endpoint: median survival time, higher T/C = longer survival
# Protocol: The antitumor activity of compounds was measured in mice bearing transplantable tumors. Survival or tumor size were measured and the results are expressed as the measurement made in the treated group (T) divided by the measurement made in the vehicle treated control group (C). The tumor model used in this assay is P388 Leukemia resistant to Adriamycin; NSC 123127, Developed at Scr 08 (intraperitoneal) in CD2F1 (CDF1) mice
smiles,measurement,setting,value
COc1cccc2c1C(=O)c1c(O)c3c(c(O)c1C2=O)C[C@@](O)(C(=O)CO)C[C@@H]3OC1CC(N)C(O)C(C)O1 (stereo not given in full),survivor count,"dose: 0.51 mg/kg/injection, schedule: Q01DX009 (ip), vehicle: saline",8 of 8
same,survivor count,"dose: 0.72 mg/kg/injection, schedule: Q01DX009 (ip), vehicle: saline",8 of 8
same,survivor count,"dose: 0.86 mg/kg/injection, schedule: Q01DX009 (ip), vehicle: saline",8 of 8
same,T/C,"dose: 1.0 mg/kg/injection, schedule: Q04DX003 (ip), vehicle: saline",139 % of control
same,T/C,"dose: 1.25 mg/kg/injection, schedule: Q01DX001 (ip), vehicle: water",125 % of control
same,survivor count,"dose: 1.44 mg/kg/injection, schedule: Q01DX009 (ip), vehicle: saline",8 of 8
same,T/C,"dose: 2.0 mg/kg/injection, schedule: Q04DX003 (ip), vehicle: saline",142 % of control
same,survivor count,"dose: 2.4 mg/kg/injection, schedule: Q01DX009 (ip), vehicle: saline",8 of 8
same,T/C,"dose: 2.5 mg/kg/injection, schedule: Q01DX001 (ip), vehicle: saline",131 % of control
same,survivor count,"dose: 3.0 mg/kg/injection, schedule: Q01DX009 (ip), vehicle: saline",8 of 8
same,survivor count,"dose: 4.0 mg/kg/injection, schedule: Q01DX009 (ip), vehicle: saline",8 of 8
same,T/C,"dose: 4.0 mg/kg/injection, schedule: Q04DX002 (ip), vehicle: saline",133 % of control
same,T/C,"dose: 4.0 mg/kg/injection, schedule: Q04DX003 (ip), vehicle: saline",136 % of control
same,T/C,"dose: 4.4 mg/kg/injection, schedule: Q01DX001 (ip), vehicle: saline",132 % of control
same,T/C,"dose: 4.4 mg/kg/injection, schedule: Q04DX003 (ip), vehicle: saline",144 % of control
same,T/C,"dose: 4.5 mg/kg/injection, schedule: Q01DX001 (ip), vehicle: saline, evaluated on day 20",111 and 139 % of control
same,T/C,"dose: 4.5 mg/kg/injection, schedule: Q01DX001 (ip), vehicle: saline, evaluated on day 23",110 % of control
same,T/C,"dose: 4.5 mg/kg/injection, schedule: Q01DX001 (ip), vehicle: saline, evaluated on day 30","90, 93, 96, 99, 100, 101 [9 of 10 alive], 102, 103, 109 (3×), 110 (2×), 111, 112, 115, 116, 117, 118 (2×), 119 (3×), 120 (2×), 121 (2×), 123 (2×), 126 (3×), 128, 129 (3×), 130 (3×), 131, 132, 134 (2×), 135 (4×), 136 (2×), 137, 138, 140 (2×), 142, 143, 144 (2×), 146, 147, 148 % of control"
same,T/C,"dose: 4.5 mg/kg/injection, schedule: Q01DX001 (ip), vehicle: saline, evaluated on day 45","130, 133, 134, 140 (2×), 141, 145 % of control"
same,T/C,"dose: 4.5 mg/kg/injection, schedule: Q01DX001 (ip), vehicle: saline, evaluated on day 46",134 % of control
same,T/C,"dose: 4.5 mg/kg/injection, schedule: Q01DX001 (ip), vehicle: saline, evaluated on day 56",126 % of control
same,T/C,"dose: 4.5 mg/kg/injection, schedule: Q01DX001 (ip), vehicle: saline, evaluated on day 60","131, 134, 135, 140, 148 % of control"
same,survivor count,"dose: 4.5 mg/kg/injection, schedule: Q01DX001 (ip), vehicle: saline",1 of 10 and 6 of 10
same,T/C,"dose: 4.5 mg/kg/injection, schedule: Q01DX005 (ip), vehicle: saline",148 % of control
same,T/C,"dose: 5.0 mg/kg/injection, schedule: Q01DX001 (ip), vehicle: saline",125 % of control
same,T/C,"dose: 6.0 mg/kg/injection, schedule: Q04DX002 (ip), vehicle: saline",140 % of control
same,T/C,"dose: 6.7 mg/kg/injection, schedule: Q01DX001 (ip), vehicle: saline, evaluated on day 20",110 and 141 % of control
same,T/C,"dose: 6.7 mg/kg/injection, schedule: Q01DX001 (ip), vehicle: saline, evaluated on day 23",116 % of control
same,T/C,"dose: 6.7 mg/kg/injection, schedule: Q01DX001 (ip), vehicle: saline, evaluated on day 27",132 % of control
same,T/C,"dose: 6.7 mg/kg/injection, schedule: Q01DX001 (ip), vehicle: saline, evaluated on day 30","89, 91, 97 (2×), 105, 107, 108, 109 (2×), 110 (2×), 114 (3×), 115 (2×), 117 (2×), 118 (2×), 119 (2×), 120 (4×), 121 (3×), 123, 124, 124 [9 of 10 alive], 125 (2×), 126, 128, 129, 130 (2×), 132 (4×), 135 (2×), 136, 137, 138 (3×), 139, 140, 141, 142, 143, 144 (2×), 145, 150, 154 % of control"
same,T/C,"dose: 6.7 mg/kg/injection, schedule: Q01DX001 (ip), vehicle: saline, evaluated on day 45","115, 117, 122, 132 (2×), 133, 136, 145 (2×), 148, 149 % of control"
same,T/C,"dose: 6.7 mg/kg/injection, schedule: Q01DX001 (ip), vehicle: saline, evaluated on day 46",125 % of control
same,T/C,"dose: 6.7 mg/kg/injection, schedule: Q01DX001 (ip), vehicle: saline, evaluated on day 56",126 % of control
same,T/C,"dose: 6.7 mg/kg/injection, schedule: Q01DX001 (ip), vehicle: saline, evaluated on day 60","126, 131, 135, 136, 145 % of control"
same,survivor count,"dose: 6.7 mg/kg/injection, schedule: Q01DX001 (ip), vehicle: saline",0 of 10
same,T/C,"dose: 6.7 mg/kg/injection, schedule: Q04DX003 (ip), vehicle: saline",133 % of control
same,survivor count,"dose: 7.5 mg/kg/injection, schedule: Q04DX003 (ip), vehicle: saline",8 of 8
same,T/C,"dose: 8.0 mg/kg/injection, schedule: Q04DX003 (ip), vehicle: saline",125 % of control
same,T/C,"dose: 9.0 mg/kg/injection, schedule: Q04DX002 (ip), vehicle: saline",127 % of control
same,T/C,"dose: 10.0 mg/kg/injection, schedule: Q01DX001 (ip), vehicle: saline, evaluated on day 20",112 and 140 % of control
same,T/C,"dose: 10.0 mg/kg/injection, schedule: Q01DX001 (ip), vehicle: saline, evaluated on day 23",111 % of control
same,T/C,"dose: 10.0 mg/kg/injection, schedule: Q01DX001 (ip), vehicle: saline, evaluated on day 27",126 % of control
same,T/C,"dose: 10.0 mg/kg/injection, schedule: Q01DX001 (ip), vehicle: saline, evaluated on day 30, list 1 of 2","87, 92, 99, 107, 108, 110, 112, 113, 115, 116 (2×), 117, 118 (2×), 122, 123, 125, 127, 128 (2×), 129, 130 (2×), 134 (2×), 136, 138, 138 [9 of 10 alive], 141, 143, 144 % of control"
same,T/C,"dose: 10.0 mg/kg/injection, schedule: Q01DX001 (ip), vehicle: saline, evaluated on day 30, list 2 of 2","91, 94, 106, 108, 109, 111, 112, 114, 115, 116 (2×), 117, 118, 122, 123, 124, 126, 127, 128 (2×), 130 (3×), 131, 134, 135, 138 (3×), 141, 143, 147 % of control"
same,T/C,"dose: 10.0 mg/kg/injection, schedule: Q01DX001 (ip), vehicle: saline, evaluated on day 45","115, 119, 125, 126, 128, 129, 130, 133, 136 (2×), 138, 144 % of control"
same,T/C,"dose: 10.0 mg/kg/injection, schedule: Q01DX001 (ip), vehicle: saline, evaluated on day 46",124 % of control
same,T/C,"dose: 10.0 mg/kg/injection, schedule: Q01DX001 (ip), vehicle: saline, evaluated on day 56",128 % of control
same,T/C,"dose: 10.0 mg/kg/injection, schedule: Q01DX001 (ip), vehicle: saline, evaluated on day 60","97, 117, 122, 130, 137, 138 (2×), 150 % of control"
same,survivor count,"dose: 10.0 mg/kg/injection, schedule: Q01DX001 (ip), vehicle: saline",0 of 10
same,T/C,"dose: 10.0 mg/kg/injection, schedule: Q01DX005 (ip), vehicle: saline",135 % of control
same,T/C,"dose: 10.0 mg/kg/injection, schedule: Q04DX003 (ip), vehicle: saline",131 % of control
same,T/C,"dose: 12.5 mg/kg/injection, schedule: Q01DX001 (ip), vehicle: saline",128 % of control
same,T/C,"dose: 15.0 mg/kg/injection, schedule: Q01DX001 (ip), vehicle: saline, evaluated on day 20",102 % of control
same,T/C,"dose: 15.0 mg/kg/injection, schedule: Q01DX001 (ip), vehicle: saline, evaluated on day 23",107 % of control
same,T/C,"dose: 15.0 mg/kg/injection, schedule: Q01DX001 (ip), vehicle: saline, evaluated on day 27",125 % of control
same,T/C,"dose: 15.0 mg/kg/injection, schedule: Q01DX001 (ip), vehicle: saline, evaluated on day 30, list 1 of 2","90, 96, 102 (2×), 104, 105, 107, 109, 110 (2×), 111, 113, 114 (2×), 115, 116, 118, 119, 121, 124 (2×), 125, 126 (2×), 127, 128, 134, 135, 136, 140 % of control"
same,T/C,"dose: 15.0 mg/kg/injection, schedule: Q01DX001 (ip), vehicle: saline, evaluated on day 30, list 2 of 2","88, 93, 98, 102, 104, 105, 106, 108, 109, 110, 111, 112, 113, 114, 115 (2×), 117, 118, 120 [8 of 10 alive], 122, 124, 125, 126 (2×), 127 (2×), 131, 132, 134, 135, 138 % of control"
same,T/C,"dose: 15.0 mg/kg/injection, schedule: Q01DX001 (ip), vehicle: saline, evaluated on day 45","107, 113, 116, 119, 120, 124, 126, 128, 131, 136, 138 % of control"
same,T/C,"dose: 15.0 mg/kg/injection, schedule: Q01DX001 (ip), vehicle: saline, evaluated on day 46",125 % of control
same,T/C,"dose: 15.0 mg/kg/injection, schedule: Q01DX001 (ip), vehicle: saline, evaluated on day 56",111 % of control
same,T/C,"dose: 15.0 mg/kg/injection, schedule: Q01DX001 (ip), vehicle: saline, evaluated on day 60","118, 121, 130, 137, 142, 144 % of control"
same,survivor count,"dose: 15.0 mg/kg/injection, schedule: Q01DX001 (ip), vehicle: saline",0 of 10 and 10 of 10 (2×)
same,T/C,"dose: 20.0 mg/kg/injection, schedule: Q01DX001 (ip), vehicle: saline, evaluated on day 30",127 and 132 % of control
same,T/C,"dose: 20.0 mg/kg/injection, schedule: Q01DX001 (ip), vehicle: saline, evaluated on day 45",134 % of control
same,T/C,"dose: 20.0 mg/kg/injection, schedule: Q01DX001 (ip), vehicle: saline, evaluated on day 60",133 % of control

# Reference: PubChem BioAssay AID322 (DTP/NCI, 2004)
